Laboratory results as given in the supplement of paper PMC10849652.
This is one part of the list.

Protein sequences, listed by entry. Tags and fused reporters are not part of them. Lines headed by an entry give the natural chain unless they say otherwise; changes in a name come on top.
UniProt P14866: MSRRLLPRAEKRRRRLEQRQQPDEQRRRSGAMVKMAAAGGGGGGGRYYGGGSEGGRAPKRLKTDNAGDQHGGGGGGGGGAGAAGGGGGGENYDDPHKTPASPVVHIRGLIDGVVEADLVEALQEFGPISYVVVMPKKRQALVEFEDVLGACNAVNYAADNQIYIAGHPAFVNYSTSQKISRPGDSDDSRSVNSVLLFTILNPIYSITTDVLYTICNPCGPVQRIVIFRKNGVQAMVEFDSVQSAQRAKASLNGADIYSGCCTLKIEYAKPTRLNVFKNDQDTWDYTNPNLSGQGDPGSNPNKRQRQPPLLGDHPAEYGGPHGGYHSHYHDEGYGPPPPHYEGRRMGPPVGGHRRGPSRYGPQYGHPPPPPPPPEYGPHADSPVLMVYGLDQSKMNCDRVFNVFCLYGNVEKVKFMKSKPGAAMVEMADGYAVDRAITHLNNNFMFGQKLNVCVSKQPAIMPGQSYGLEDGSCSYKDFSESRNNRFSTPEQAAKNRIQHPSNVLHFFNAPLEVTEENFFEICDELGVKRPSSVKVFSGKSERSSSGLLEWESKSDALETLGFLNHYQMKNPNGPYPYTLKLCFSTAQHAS
UniProt P26583: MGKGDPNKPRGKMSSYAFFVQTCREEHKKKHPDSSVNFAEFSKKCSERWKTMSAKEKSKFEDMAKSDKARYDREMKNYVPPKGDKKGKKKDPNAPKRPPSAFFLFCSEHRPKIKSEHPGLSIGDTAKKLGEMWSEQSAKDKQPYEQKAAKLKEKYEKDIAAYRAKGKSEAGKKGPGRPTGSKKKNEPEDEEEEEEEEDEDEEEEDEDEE
UniProt H0YH80: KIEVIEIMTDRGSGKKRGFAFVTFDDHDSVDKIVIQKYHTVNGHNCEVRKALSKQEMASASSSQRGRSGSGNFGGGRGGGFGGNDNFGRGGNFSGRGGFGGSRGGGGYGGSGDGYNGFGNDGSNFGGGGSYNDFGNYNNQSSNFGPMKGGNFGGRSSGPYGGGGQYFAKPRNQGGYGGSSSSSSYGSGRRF
UniProt Q9NRV9: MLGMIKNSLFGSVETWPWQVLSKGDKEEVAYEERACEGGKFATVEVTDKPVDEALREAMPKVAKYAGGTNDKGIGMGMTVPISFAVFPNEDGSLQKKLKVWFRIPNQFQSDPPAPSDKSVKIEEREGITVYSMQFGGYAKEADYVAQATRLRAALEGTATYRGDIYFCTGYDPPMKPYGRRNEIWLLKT
UniProt P23327: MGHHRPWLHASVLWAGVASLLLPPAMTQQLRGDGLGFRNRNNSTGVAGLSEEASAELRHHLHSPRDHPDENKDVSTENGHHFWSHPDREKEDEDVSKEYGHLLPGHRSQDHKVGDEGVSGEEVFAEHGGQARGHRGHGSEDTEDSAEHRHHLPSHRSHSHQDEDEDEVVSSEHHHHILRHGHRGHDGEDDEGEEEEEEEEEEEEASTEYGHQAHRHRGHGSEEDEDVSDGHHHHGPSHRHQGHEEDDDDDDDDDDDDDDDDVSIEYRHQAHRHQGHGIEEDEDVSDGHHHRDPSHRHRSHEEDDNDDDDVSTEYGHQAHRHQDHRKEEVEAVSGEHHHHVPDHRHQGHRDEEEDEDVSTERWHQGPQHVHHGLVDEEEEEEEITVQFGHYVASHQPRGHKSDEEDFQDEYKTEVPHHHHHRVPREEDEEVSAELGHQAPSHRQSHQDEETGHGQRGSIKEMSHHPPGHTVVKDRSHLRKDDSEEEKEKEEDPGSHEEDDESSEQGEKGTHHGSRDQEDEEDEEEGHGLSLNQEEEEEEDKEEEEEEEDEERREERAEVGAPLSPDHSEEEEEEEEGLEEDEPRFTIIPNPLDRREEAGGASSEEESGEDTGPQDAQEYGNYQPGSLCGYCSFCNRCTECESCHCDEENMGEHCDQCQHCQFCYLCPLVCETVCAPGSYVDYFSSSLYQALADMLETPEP
UniProt Q9BW71: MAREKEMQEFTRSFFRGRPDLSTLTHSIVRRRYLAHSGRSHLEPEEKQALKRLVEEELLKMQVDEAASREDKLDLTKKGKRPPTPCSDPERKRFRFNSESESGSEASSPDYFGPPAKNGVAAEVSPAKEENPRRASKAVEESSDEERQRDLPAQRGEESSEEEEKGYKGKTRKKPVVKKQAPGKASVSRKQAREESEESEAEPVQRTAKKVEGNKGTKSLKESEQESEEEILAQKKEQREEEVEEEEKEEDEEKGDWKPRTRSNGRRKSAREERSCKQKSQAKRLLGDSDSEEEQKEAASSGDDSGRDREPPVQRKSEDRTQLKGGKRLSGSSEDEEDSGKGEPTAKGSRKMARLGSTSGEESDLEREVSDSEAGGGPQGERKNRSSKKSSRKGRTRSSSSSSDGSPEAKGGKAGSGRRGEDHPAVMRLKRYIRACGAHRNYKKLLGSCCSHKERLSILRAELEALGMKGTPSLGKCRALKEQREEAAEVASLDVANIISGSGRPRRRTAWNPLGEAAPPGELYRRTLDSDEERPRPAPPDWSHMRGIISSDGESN
UniProt Q9BQS7: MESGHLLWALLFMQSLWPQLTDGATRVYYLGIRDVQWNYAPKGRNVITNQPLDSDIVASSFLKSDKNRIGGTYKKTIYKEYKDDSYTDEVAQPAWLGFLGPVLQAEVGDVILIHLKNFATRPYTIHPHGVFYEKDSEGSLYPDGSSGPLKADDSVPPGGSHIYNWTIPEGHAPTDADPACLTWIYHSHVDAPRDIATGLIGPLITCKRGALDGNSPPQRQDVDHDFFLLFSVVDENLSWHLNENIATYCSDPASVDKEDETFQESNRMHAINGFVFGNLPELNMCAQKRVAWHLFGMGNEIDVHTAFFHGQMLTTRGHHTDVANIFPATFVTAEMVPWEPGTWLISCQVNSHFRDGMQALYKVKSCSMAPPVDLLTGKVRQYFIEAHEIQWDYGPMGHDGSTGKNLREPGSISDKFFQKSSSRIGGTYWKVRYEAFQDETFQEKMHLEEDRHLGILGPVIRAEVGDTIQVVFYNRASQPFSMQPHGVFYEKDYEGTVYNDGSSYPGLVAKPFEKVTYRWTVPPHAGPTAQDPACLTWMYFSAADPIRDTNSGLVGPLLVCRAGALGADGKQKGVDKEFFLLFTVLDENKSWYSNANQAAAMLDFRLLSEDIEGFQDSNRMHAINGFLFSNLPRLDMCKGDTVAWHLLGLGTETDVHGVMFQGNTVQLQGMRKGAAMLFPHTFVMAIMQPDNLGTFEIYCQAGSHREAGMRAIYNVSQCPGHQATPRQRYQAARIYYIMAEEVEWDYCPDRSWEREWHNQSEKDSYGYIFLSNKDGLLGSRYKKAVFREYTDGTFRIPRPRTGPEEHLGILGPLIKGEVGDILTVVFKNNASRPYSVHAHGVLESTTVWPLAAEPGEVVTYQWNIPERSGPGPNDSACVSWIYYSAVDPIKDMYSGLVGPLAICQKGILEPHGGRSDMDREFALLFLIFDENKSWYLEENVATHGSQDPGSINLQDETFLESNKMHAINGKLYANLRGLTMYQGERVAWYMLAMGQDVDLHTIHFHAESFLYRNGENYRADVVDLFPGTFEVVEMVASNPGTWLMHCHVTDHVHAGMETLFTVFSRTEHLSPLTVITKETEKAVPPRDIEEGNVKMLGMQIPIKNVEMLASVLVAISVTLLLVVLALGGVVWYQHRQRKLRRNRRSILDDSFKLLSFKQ
UniProt O14964, whole entry, looked up: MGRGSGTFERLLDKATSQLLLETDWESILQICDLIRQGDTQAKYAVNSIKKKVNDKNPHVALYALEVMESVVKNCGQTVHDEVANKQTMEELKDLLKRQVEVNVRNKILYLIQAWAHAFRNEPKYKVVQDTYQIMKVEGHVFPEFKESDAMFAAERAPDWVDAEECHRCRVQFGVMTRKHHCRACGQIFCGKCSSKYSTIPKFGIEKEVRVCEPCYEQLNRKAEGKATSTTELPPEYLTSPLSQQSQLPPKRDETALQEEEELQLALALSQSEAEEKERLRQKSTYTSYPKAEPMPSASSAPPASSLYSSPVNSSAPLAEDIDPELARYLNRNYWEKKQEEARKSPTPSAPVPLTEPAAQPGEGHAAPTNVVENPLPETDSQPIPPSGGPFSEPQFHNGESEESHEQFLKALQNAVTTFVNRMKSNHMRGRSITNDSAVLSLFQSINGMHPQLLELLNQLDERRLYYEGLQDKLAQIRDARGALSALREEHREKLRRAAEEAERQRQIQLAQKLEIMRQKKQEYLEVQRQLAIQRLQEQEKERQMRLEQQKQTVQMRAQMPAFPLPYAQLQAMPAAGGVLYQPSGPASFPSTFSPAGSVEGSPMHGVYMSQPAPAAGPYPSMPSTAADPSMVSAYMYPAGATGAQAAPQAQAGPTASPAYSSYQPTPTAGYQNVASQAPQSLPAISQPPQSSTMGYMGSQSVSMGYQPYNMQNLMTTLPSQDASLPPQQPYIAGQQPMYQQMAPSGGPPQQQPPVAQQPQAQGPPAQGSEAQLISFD
UniProt P55795: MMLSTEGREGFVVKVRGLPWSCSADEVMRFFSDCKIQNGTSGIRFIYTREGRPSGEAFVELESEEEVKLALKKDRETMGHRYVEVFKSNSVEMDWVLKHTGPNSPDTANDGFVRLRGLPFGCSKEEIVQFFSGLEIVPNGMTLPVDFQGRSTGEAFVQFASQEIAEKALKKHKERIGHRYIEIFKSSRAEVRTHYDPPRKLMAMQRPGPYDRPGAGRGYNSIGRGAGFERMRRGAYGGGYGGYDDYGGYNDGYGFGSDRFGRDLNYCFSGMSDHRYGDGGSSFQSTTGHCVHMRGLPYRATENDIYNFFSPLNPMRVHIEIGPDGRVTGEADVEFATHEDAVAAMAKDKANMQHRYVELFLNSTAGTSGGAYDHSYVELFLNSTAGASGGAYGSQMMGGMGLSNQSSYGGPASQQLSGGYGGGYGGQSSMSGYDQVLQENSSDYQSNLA
UniProt P34932: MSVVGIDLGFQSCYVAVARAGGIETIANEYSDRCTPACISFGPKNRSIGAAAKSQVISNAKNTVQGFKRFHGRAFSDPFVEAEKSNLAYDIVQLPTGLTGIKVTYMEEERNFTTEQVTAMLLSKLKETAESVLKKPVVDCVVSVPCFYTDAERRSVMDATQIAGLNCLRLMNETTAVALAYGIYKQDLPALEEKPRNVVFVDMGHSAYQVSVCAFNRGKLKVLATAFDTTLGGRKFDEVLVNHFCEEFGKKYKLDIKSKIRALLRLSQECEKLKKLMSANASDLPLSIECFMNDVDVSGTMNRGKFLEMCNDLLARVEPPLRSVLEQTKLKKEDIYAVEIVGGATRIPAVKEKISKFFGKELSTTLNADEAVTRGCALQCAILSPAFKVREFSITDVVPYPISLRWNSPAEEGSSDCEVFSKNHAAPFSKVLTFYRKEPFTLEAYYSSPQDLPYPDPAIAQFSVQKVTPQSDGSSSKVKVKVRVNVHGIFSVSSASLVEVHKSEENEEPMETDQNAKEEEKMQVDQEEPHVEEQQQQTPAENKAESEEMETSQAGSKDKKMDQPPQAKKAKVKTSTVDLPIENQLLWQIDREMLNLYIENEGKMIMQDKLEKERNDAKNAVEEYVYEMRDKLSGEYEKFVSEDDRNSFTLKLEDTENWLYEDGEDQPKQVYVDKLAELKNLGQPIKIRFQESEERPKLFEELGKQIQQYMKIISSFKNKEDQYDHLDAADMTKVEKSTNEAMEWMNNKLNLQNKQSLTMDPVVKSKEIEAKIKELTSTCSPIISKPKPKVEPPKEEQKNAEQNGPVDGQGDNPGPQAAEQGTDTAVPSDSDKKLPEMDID
UniProt Q86VS8: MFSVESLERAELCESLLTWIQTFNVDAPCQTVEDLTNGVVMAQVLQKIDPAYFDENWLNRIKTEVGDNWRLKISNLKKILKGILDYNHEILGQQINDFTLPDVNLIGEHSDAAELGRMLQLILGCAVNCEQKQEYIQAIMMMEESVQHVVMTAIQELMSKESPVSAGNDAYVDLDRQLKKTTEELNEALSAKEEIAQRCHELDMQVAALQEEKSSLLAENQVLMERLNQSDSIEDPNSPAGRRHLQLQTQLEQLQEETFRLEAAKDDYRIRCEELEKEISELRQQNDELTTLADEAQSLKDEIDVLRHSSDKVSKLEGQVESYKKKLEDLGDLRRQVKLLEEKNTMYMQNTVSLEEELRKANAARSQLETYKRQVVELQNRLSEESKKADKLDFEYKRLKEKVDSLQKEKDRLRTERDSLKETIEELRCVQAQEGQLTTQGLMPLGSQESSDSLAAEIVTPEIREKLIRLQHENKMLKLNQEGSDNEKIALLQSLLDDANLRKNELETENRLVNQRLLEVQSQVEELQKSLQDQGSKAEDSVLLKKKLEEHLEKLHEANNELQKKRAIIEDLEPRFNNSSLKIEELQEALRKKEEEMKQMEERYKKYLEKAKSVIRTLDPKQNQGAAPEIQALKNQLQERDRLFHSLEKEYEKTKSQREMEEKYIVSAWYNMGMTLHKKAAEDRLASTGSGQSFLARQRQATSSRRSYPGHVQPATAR

How the values were obtained:
Assay in all cases: log2 fold change, soluble protein after heating vs DMSO (PISA); higher = thermal stabilisation; K562 lysate, 10 uM; active = over 0.2 and 3.5 SD of the protein, either way, in both replicates (recomputed)
ibrutinib = compound: C=CC(=O)N1CCC[C@@H](n2nc(-c3ccc(Oc4ccccc4)cc3)c3c(N)ncnc32)C1 [ibrutinib]
In short: (§1)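 K562 pellets were dounce-homogenised in PBS pH 7.4 containing 1 mM MgCl2, and the crude extract, at 1 mg/mL protein, was exposed to 10 μM compound for 30 min. Aliquots were heated for 3 min across 48°C-58°C, pooled, brought to 0.5% NP-40 at 4°C and spun at 21,000xg for 90 min, with the supernatant taken as soluble protein. TMTpro 16plex LC-MS/MS with equalised channel sums quantified that protein. Values are log-two fold changes in thermal stability relative to solvent controls, taken from duplicates.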

[1] = compound: CC(=O)c1cnc2ccc(-c3cc(Cl)c(O)c(Cl)c3)nc2c1N[C@H]1CC[C@H](CN(C)C)CC1
In short: as §1

ralimetinib = compound: CC(C)(C)Cn1c(N)nc2ccc(-c3[nH]c(C(C)(C)C)nc3-c3ccc(F)cc3)nc21 [ralimetinib]
In short: as §1

[2] = compound: CC(C)(O)CC(=O)NCCn1ccc2ncnc(Nc3ccc(Oc4cccc(C(F)(F)F)c4)c(Cl)c3)c21
In short: as §1

[3] = compound: CC(C)C1=C2N=C(C=C(N2N=C1)NCC3=CC=CC=C3)NCCCCCCN
In short: as §1

[4] = compound: CC1=C(C(CC(=O)N1)C2=CC=C(C=C2)C(F)(F)F)C(=O)NC3=C(C=C4C(=C3)C=NN4)F
In short: as §1

[5] = compound: CC1=C(C2=C(C=C1)C(=O)C3=CC=CC=C3N2CCCN)C
In short: as §1

[6] = compound: CC1=C(C=C(C=C1)NC(=O)C2=CC(=CC=C2)C(C)(C)C#N)NC3=CC4=C(C=C3)N=CN(C4=O)C
In short: as §1

[7] = compound: CC1=C(C=C(C=C1)NC(=O)C2=CC(=CC=C2)N(C)C)NC(=O)C3=CC=C(C=C3)O
In short: as §1

[8] = compound: CC1=CC=C(C=C1)SC2=C3C=C(SC3=CN=C2)C(=O)N
In short: as §1

vemurafenib = compound: CCCS(=O)(=O)Nc1ccc(F)c(C(=O)c2c[nH]c3ncc(-c4ccc(Cl)cc4)cc23)c1F [vemurafenib]
In short: as §1

[9] = compound: CCCS(=O)(=O)Nc1ccc(F)c(C(=O)c2c[nH]c3ncc(Cl)cc23)c1F
In short: as §1

barasertib = compound: CCN(CCCOc1ccc2c(Nc3cc(CC(=O)Nc4cccc(F)c4)[nH]n3)ncnc2c1)CCOP(=O)(O)O [barasertib]
In short: as §1

[10] = compound: CC[C@@H]1C(=O)N(C)c2cnc(Nc3ccc(C(=O)NC4CCN(C)CC4)cc3OC)nc2N1C1CCCC1
In short: as §1

volasertib = compound: CC[C@@H]1C(=O)N(C)c2cnc(Nc3ccc(C(=O)N[C@H]4CC[C@H](N5CCN(CC6CC6)CC5)CC4)cc3OC)nc2N1C(C)C [volasertib]
In short: as §1

[11] = compound: CCn1c(C(=O)N(C2CC2)C2CC2)cc2c3c(ncn3C)c(Nc3cc(C)n(C)n3)nc21
In short: as §1

[12] = compound: CCn1cc(-c2ccnc3[nH]c(-c4cccc(CN(C)C)c4)cc23)c(-c2ccc(NC(=O)N(C)C)cc2)n1
In short: as §1

[13] = compound: CN1CCC(CNc2ccc3ncc(-c4cccc(OC(F)(F)F)c4)n3n2)CC1
In short: as §1

saracatinib = compound: CN1CCN(CCOc2cc(OC3CCOCC3)c3c(Nc4c(Cl)ccc5c4OCO5)ncnc3c2)CC1 [saracatinib]
In short: as §1

sotrastaurin = compound: CN1CCN(c2nc(C3=C(c4c[nH]c5ccccc45)C(=O)NC3=O)c3ccccc3n2)CC1 [sotrastaurin]
In short: as §1

Row | Target | log2 fold change (ibrutinib) | log2 fold change [1] | log2 fold change (ralimetinib) | log2 fold change [2] | log2 fold change [3] | log2 fold change [4] | log2 fold change [5] | log2 fold change [6] | log2 fold change [7] | log2 fold change [8] | log2 fold change (vemurafenib) | log2 fold change [9] | log2 fold change (barasertib) | log2 fold change [10] | log2 fold change (volasertib) | log2 fold change [11] | log2 fold change [12] | log2 fold change [13] | log2 fold change (saracatinib) | log2 fold change (sotrastaurin)
1 | HNRNPL (UniProt P14866) | inactive: -0.015 | inactive: 0.012 | inactive: 0.047 | inactive: 0.046 | inactive: 0.051 | inactive: 0 | inactive: 0.021 | inactive: 0.001 | inactive: 0.058 | inactive: 0.032 | inactive: 0.01 | inactive: 0.023 | inactive: 0.021 | inactive: -0.052 | inactive: -0.047 | inactive: 0.061 | inactive: -0.012 | inactive: -0.056 | inactive: 0.017 | inactive: 0.023
2 | HMGB2 (UniProt P26583) | inactive: -0.038 | inactive: 0.012 | inactive: -0.034 | inactive: 0.026 | inactive: 0.014 | inactive: -0.013 | inactive: -0.001 | inactive: -0.035 | inactive: 0.015 | inactive: -0.004 | inactive: 0.003 | inactive: 0.017 | inactive: -0.019 | inactive: 0.037 | inactive: 0.014 | inactive: 0.018 | active: 0.283 | active: -0.273 | inactive: 0.007 | inactive: -0.04
3 | HNRNPD isoform 2 (UniProt Q14103) | inactive: 0 | inactive: -0.142 | inactive: -0.039 | inactive: -0.01 | inactive: 0.016 | inactive: -0.046 | inactive: 0.001 | inactive: 0.034 | inactive: -0.014 | inactive: -0.011 | inactive: 0.011 | inactive: 0.002 | inactive: -0.052 | inactive: 0.022 | inactive: 0.029 | inactive: -0.036 | active: 0.857 | inactive: -0.135 | inactive: 0 | inactive: -0.08
4 | HNRNPA1 (UniProt H0YH80) | inactive: 0.214 | inactive: -0.056 | inactive: -0.068 | inactive: 0.028 | inactive: 0.074 | inactive: 0.038 | inactive: 0.087 | inactive: 0.055 | inactive: -0.017 | inactive: 0.017 | inactive: 0.038 | inactive: 0.09 | inactive: 0.064 | inactive: -0.013 | inactive: 0.014 | inactive: 0.024 | inactive: 0.007 | inactive: 0.118 | inactive: 0.029 | inactive: 0.095
5 | HEBP1 (UniProt Q9NRV9) | inactive: 0.014 | inactive: -0.011 | inactive: -0.033 | inactive: -0.052 | inactive: -0.086 | inactive: -0.051 | inactive: -0.045 | inactive: -0.016 | inactive: -0.022 | inactive: -0.027 | inactive: 0.017 | inactive: 0.002 | inactive: -0.053 | inactive: 0.078 | inactive: 0.064 | inactive: -0.088 | inactive: 0.038 | inactive: 0.037 | inactive: 0.071 | inactive: 0.038
6 | HRC (UniProt P23327) | inactive: 0.001 | inactive: -0.064 | inactive: 0.005 | inactive: -0.042 | inactive: -0.013 | inactive: -0.006 | inactive: -0.111 | inactive: 0.062 | inactive: -0.032 | inactive: -0.033 | inactive: 0.049 | inactive: 0.011 | inactive: -0.02 | inactive: 0.063 | inactive: 0.019 | inactive: 0.025 | inactive: -0.04 | inactive: -0.039 | inactive: -0.014 | inactive: 0.003
7 | HIRIP3 (UniProt Q9BW71) | inactive: -0.037 | inactive: -0.001 | inactive: 0.011 | inactive: -0.014 | inactive: -0.062 | inactive: 0.006 | inactive: -0.008 | inactive: 0.061 | inactive: 0.003 | inactive: 0.004 | inactive: 0.007 | inactive: 0.027 | inactive: -0.073 | inactive: 0.062 | inactive: 0.01 | inactive: -0.001 | inactive: -0.007 | inactive: -0.028 | inactive: 0.019 | inactive: -0.02
8 | HEPH isoform 3 (UniProt Q9BQS7) | inactive: 0.018 | inactive: -0.034 | inactive: -0.003 | inactive: 0.014 | inactive: -0.005 | inactive: 0.002 | inactive: -0.008 | inactive: -0.003 | inactive: -0.018 | inactive: 0.054 | inactive: 0.031 | inactive: 0.025 | inactive: 0.025 | inactive: 0.03 | inactive: 0.013 | inactive: -0.028 | inactive: -0.007 | inactive: 0.023 | inactive: 0 | inactive: 0.023
9 | HGS (UniProt O14964) | inactive: -0.008 | inactive: -0.009 | inactive: -0.022 | inactive: 0 | inactive: 0.014 | inactive: -0.012 | inactive: 0.035 | inactive: 0.021 | inactive: 0.004 | inactive: -0.005 | inactive: -0.023 | inactive: 0.012 | inactive: -0.019 | inactive: -0.004 | inactive: 0.003 | inactive: -0.002 | inactive: -0.005 | inactive: -0.007 | inactive: 0.012 | inactive: -0.058
10 | HNRNPH2 (UniProt P55795) | inactive: 0.017 | inactive: 0 | inactive: -0.03 | inactive: -0.023 | inactive: -0.01 | inactive: 0.056 | inactive: 0.024 | inactive: 0.081 | inactive: 0.053 | inactive: 0.029 | inactive: -0.004 | inactive: 0.025 | inactive: -0.003 | inactive: 0.05 | inactive: -0.056 | inactive: 0.008 | inactive: -0.01 | inactive: -0.056 | inactive: -0.025 | inactive: -0.074
11 | HNRNPK isoform 3 (UniProt P61978) | inactive: 0.105 | inactive: -0.021 | inactive: 0.04 | inactive: -0.083 | inactive: -0.018 | inactive: -0.038 | inactive: -0.005 | inactive: 0.051 | inactive: -0.077 | inactive: 0.028 | inactive: 0 | inactive: 0.007 | inactive: 0.024 | inactive: 0.053 | inactive: 0.019 | inactive: -0.052 | inactive: -0.014 | inactive: 0.006 | inactive: 0.04 | inactive: -0.007
12 | HIST2H2AA3 (UniProt Q6FI13) | inactive: -0.011 | inactive: -0.014 | inactive: -0.112 | inactive: 0.065 | inactive: 0 | inactive: -0.012 | inactive: 0.028 | inactive: -0.046 | inactive: 0.032 | inactive: 0.045 | inactive: -0.078 | inactive: 0.028 | inactive: -0.012 | inactive: -0.007 | inactive: -0.006 | inactive: 0.012 | active: 0.694 | inactive: -0.217 | inactive: -0.034 | inactive: -0.116
13 | HERC1 (UniProt Q15751) | inactive: -0.02 | inactive: -0.02 | inactive: -0.002 | inactive: -0.022 | inactive: -0.006 | inactive: 0.027 | inactive: -0.013 | inactive: -0.007 | inactive: 0.003 | inactive: 0.004 | inactive: 0.013 | inactive: 0.033 | inactive: 0.028 | inactive: 0.007 | inactive: -0.038 | inactive: 0.014 | inactive: 0.016 | inactive: -0.003 | inactive: 0.009 | inactive: 0.017
14 | HSPA4 (UniProt P34932) | inactive: -0.003 | inactive: -0.009 | inactive: -0.004 | inactive: 0.027 | inactive: -0.012 | inactive: -0.012 | inactive: 0.004 | inactive: -0.018 | inactive: 0.009 | inactive: 0.014 | inactive: -0.022 | inactive: -0.004 | inactive: -0.011 | inactive: -0.011 | inactive: 0.001 | inactive: 0.007 | inactive: -0.049 | inactive: 0.018 | inactive: -0.013 | inactive: 0.004
15 | HNRNPH3 (UniProt P31942) | inactive: 0.005 | inactive: -0.037 | inactive: -0.077 | inactive: 0.051 | inactive: -0.006 | inactive: 0.027 | inactive: 0.02 | inactive: 0 | inactive: -0.096 | inactive: 0.012 | inactive: 0.002 | inactive: 0.032 | inactive: 0.021 | inactive: 0.012 | inactive: -0.073 | inactive: 0.061 | inactive: -0.058 | inactive: -0.07 | inactive: -0.022 | inactive: -0.003
16 | HOOK3 (UniProt Q86VS8) | inactive: 0.024 | inactive: -0.008 | inactive: 0.029 | inactive: 0.014 | inactive: -0.008 | inactive: -0.001 | inactive: 0.005 | inactive: -0.011 | inactive: 0.009 | inactive: -0.035 | inactive: 0.005 | inactive: 0.029 | inactive: 0.015 | inactive: -0.002 | inactive: -0.003 | inactive: 0.021 | inactive: -0.039 | inactive: 0.006 | inactive: 0.018 | inactive: 0.009
